A short description of this series: Subcellular localization of KDM4 variants (immunofluorescence). The series is classed as cell-based. The conditions noted are these: KDM4A mutations; % nuclear.

B1: 2A-R765Q: KDM4A mutation (protein)
chain: MASESETLNPSARIMTFYPTMEEFRNFSRYIAYIESQGAHRAGLAKVVPPKEWKPRASYDDIDDLVIPAPIQQLVTGQSGLFTQYNIQKKAMTVREFRKIANSDKYCTPRYSEFEELERKYWKNLTFNPPIYGADVNGTLYEKHVDEWNIGRLRTILDLVEKESGITIEGVNTPYLYFGMWKTSFAWHTEDMDLYSINYLHFGEPKSWYSVPPEHGKRLERLAKGFFPGSAQSCEAFLRHKMTLISPLMLKKYGIPFDKVTQEAGEFMITFPYGYHAGFNHGFNCAESTNFATRRWIEYGKQAVLCSCRKDMVKISMDVFVRKFQPERYKLWKAGKDNTVIDHTLPTPEAAEFLKESELPPRAGNEEECPEEDMEGVEDGEEGDLKTSLAKHRIGTKRHRVCLEIPQEVSQSELFPKEDLSSEQYEMTECPAALAPVRPTHSSVRQVEDGLTFPDYSDSTEVKFEELKNVKLEEEDEEEEQAAAALDLSVNPASVGGRLVFSGSKKKSSSSLGSGSSRDSISSDSETSEPLSCRAQGQTGVLTVHSYAKGDGRVTVGEPCTRKKGSAARSFSERELAEVADEYMFSLEENKKSKGRRQPLSKLPRHHPLVLQECVSDDETSEQLTPEEEAEETEAWAKPLSQLWQNRPPNFEAEKEFNETMAQQAPHCAVCMIFQTYHQVEFGGFNQNCGNASDLAPQKQRTKPLIPEMCFTSTGCSTDINLSTPYLEEDGTSILVSCKKCSVRVHASCYGVPPAKASEDWMCSQCSANALEEDCCLCSLRGGALQRANDDRWVHVSCAVAILEARFVNIAERSPVDVSKIPLPRFKLKCIFCKKRRKRTAGCCVQCSHGRCPTAFHVSCAQAAGVMMQPDDWPFVVFITCFRHKIPNLERAKGALQSITAGQKVISKHKNGRFYQCEVVRLTTETFYEVNFDDGSFSDNLYPEDIVSQDCLQFGPPAEGEVVQVRWTDGQVYGAKFVASHPIQMYQVEFEDGSQLVVKRDDVYTLDEELPKRVKSRLSVASDMRFNEIFTEKEVKQEKKRQRVINSRYREDYIEPALYRAIME
With B1, the Localization result was “−− (−− indicates 0 to 19% nuclear)”.

B2: 2A-R825C*: KDM4A mutation (protein, UniProt O75164 2-1064, looked up, variant R825C)
Lysine-specific demethylase 4A: ASESETLNPSARIMTFYPTMEEFRNFSRYIAYIESQGAHRAGLAKVVPPKEWKPRASYDDIDDLVIPAPIQQLVTGQSGLFTQYNIQKKAMTVREFRKIANSDKYCTPRYSEFEELERKYWKNLTFNPPIYGADVNGTLYEKHVDEWNIGRLRTILDLVEKESGITIEGVNTPYLYFGMWKTSFAWHTEDMDLYSINYLHFGEPKSWYSVPPEHGKRLERLAKGFFPGSAQSCEAFLRHKMTLISPLMLKKYGIPFDKVTQEAGEFMITFPYGYHAGFNHGFNCAESTNFATRRWIEYGKQAVLCSCRKDMVKISMDVFVRKFQPERYKLWKAGKDNTVIDHTLPTPEAAEFLKESELPPRAGNEEECPEEDMEGVEDGEEGDLKTSLAKHRIGTKRHRVCLEIPQEVSQSELFPKEDLSSEQYEMTECPAALAPVRPTHSSVRQVEDGLTFPDYSDSTEVKFEELKNVKLEEEDEEEEQAAAALDLSVNPASVGGRLVFSGSKKKSSSSLGSGSSRDSISSDSETSEPLSCRAQGQTGVLTVHSYAKGDGRVTVGEPCTRKKGSAARSFSERELAEVADEYMFSLEENKKSKGRRQPLSKLPRHHPLVLQECVSDDETSEQLTPEEEAEETEAWAKPLSQLWQNRPPNFEAEKEFNETMAQQAPHCAVCMIFQTYHQVEFGGFNQNCGNASDLAPQKQRTKPLIPEMCFTSTGCSTDINLSTPYLEEDGTSILVSCKKCSVRVHASCYGVPPAKASEDWMCSRCSANALEEDCCLCSLRGGALQRANDDRWVHVSCAVAILEARFVNIAERSPVDVSKIPLPCFKLKCIFCKKRRKRTAGCCVQCSHGRCPTAFHVSCAQAAGVMMQPDDWPFVVFITCFRHKIPNLERAKGALQSITAGQKVISKHKNGRFYQCEVVRLTTETFYEVNFDDGSFSDNLYPEDIVSQDCLQFGPPAEGEVVQVRWTDGQVYGAKFVASHPIQMYQVEFEDGSQLVVKRDDVYTLDEELPKRVKSRLSVASDMRFNEIFTEKEVKQEKKRQRVINSRYREDYIEPALYRAIME
Take B2: the Localization entry is reported as “+++ (+++ indicates >80% nuclear)”.

Source of the values: patent publication US20160113911A1, “METHODS AND COMPOSITIONS FOR THE TREATMENT OF CANCER” (THE GENERAL HOSPITAL CORPORATION, priority 2013, published 2016).
